# Results reported in the supplement of paper PMC8728848.
# The other results are listed elsewhere or left out.
# B1: SspB A3vp1 (Streptococcus gordonii), Q54186 (protein)
# chain: MTNEADYQAKLAAYQTELARVQKANADAKATYEKAVEDNKAKNAAIKAENEEIKQRNAVAKTDYEAKLAKYEADLAKYKKEFAAYTAALAEAESKKKQDGYLSEPRSQSLNFKSEPNAIRTIDSSVHQYGQQELDALVKSWGISPTNPDRKKSRAYSYFNAINSNNTYAKLVLEKDKPVDVTYTGLKNSSFNGKKISKVVYTYTLKETGFNDGTKMTMFASSDPTVTAWYNDYFTSTNINVKVKFYDEEGQLMNLTGGLVNFSSLNRGNGSGAIDKDAIESVRNFNGRYIPISGSSIKIHENNSAYADSSNAEKSLGARWNTSEWDTTSSPNNWYGAIVGEITQSEISFNMASSKSGNIWFAFNSNINAIGVPTKPVAPTAPTQPMYETEKPLEPAPVAPSYENEPTPPVKTPDQPEPSKPAAALEHHHHHH
# Key:
# Assay in all cases: glycan array binding signal (z-score within array); higher = stronger binding
# Conditions in all cases: glycan notation: IUPAC condensed, linker removed
# [1] = molecular target: Fuc(a1-3)GlcNAc
# Procedure, shortened: (§1)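 Arrays were curated from the Consortium for Functional Glycomics database, 3228 in total, and kept only where the protein sequence was available. Binding is expressed as a within-array Z-score. This score was averaged across arrays of the same protein sequence at different concentrations or buffers and across linkers, and negative values can be read as non-binding.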
# [2] = molecular target: Fuc(a1-3)[Gal(b1-4)]Glc6S
# Procedure, shortened: as §1
# [3] = molecular target: Fuc(a1-3)[Gal(b1-4)]GlcNAc
# Procedure, shortened: as §1
# [4] = molecular target: Fuc(a1-3)[Gal(b1-4)]GlcNAc(b1-2)Man
# Procedure, shortened: as §1
# [5] = molecular target: Fuc(a1-3)[Gal(b1-4)]GlcNAc(b1-2)Man(a1-3)[Fuc(a1-3)[Gal(b1-4)]GlcNAc(b1-2)Man(a1-6)]Man(b1-4)GlcNAc(b1-4)GlcNAc
# Procedure, shortened: as §1
# [6] = molecular target: Fuc(a1-3)[Gal(b1-4)]GlcNAc(b1-2)Man(a1-3)[Fuc(a1-3)[Gal(b1-4)]GlcNAc(b1-2)Man(a1-6)]Man(b1-4)GlcNAc(b1-4)[Fuc(a1-6)]GlcNAc
# Procedure, shortened: as §1
# [7] = molecular target: Fuc(a1-3)[Gal(b1-4)]GlcNAc(b1-3)Gal(b1-3)[Fuc(a1-4)]GlcNAc
# Procedure, shortened: as §1
# [8] = molecular target: Fuc(a1-3)[Gal(b1-4)]GlcNAc(b1-3)Gal(b1-4)[Fuc(a1-3)]GlcNAc
# Procedure, shortened: as §1
# [9] = molecular target: Fuc(a1-3)[Gal(b1-4)]GlcNAc(b1-3)Gal(b1-4)[Fuc(a1-3)]GlcNAc(b1-3)Gal(b1-4)[Fuc(a1-3)]GlcNAc
# Procedure, shortened: as §1
# [10] = molecular target: Fuc(a1-3)[Gal(b1-4)]GlcNAc(b1-3)GalNAc
# Procedure, shortened: as §1
# [11] = molecular target: Fuc(a1-3)[Gal(b1-4)]GlcNAc(b1-6)GalNAc
# Procedure, shortened: as §1
# [12] = molecular target: Fuc(a1-3)[Gal(b1-4)]GlcNAc(b1-6)[Gal(b1-3)GlcNAc(b1-3)]Gal(b1-4)Glc
# Procedure, shortened: as §1
# [13] = molecular target: Fuc(a1-3)[Gal(b1-4)]GlcNAc6S
# Procedure, shortened: as §1
# [14] = molecular target: Fuc(a1-3)[Gal3S(b1-4)]Glc
# Procedure, shortened: as §1
# [15] = molecular target: Fuc(a1-3)[Gal3S(b1-4)]GlcNAc
# Procedure, shortened: as §1
# [16] = molecular target: Fuc(a1-3)[Gal3S(b1-4)]GlcNAc6S
# Procedure, shortened: as §1
# [17] = molecular target: Fuc(a1-3)[GalNAc(b1-4)]GlcNAc
# Procedure, shortened: as §1
# [18] = molecular target: Fuc(a1-3)[GalNAc(b1-4)]GlcNAc6S
# Procedure, shortened: as §1
# [19] = molecular target: Fuc(a1-4)GlcNAc
# Procedure, shortened: as §1
# [20] = molecular target: Fuc(b1-3)GlcNAc
# Procedure, shortened: as §1
# [21] = molecular target: Gal(a1-2)Gal
# Procedure, shortened: as §1
# [22] = molecular target: Gal(a1-3)Gal
# Procedure, shortened: as §1
# [23] = molecular target: Gal(a1-3)Gal(b1-3)GlcNAc
# Procedure, shortened: as §1
# [24] = molecular target: Gal(a1-3)Gal(b1-3)GlcNAc(b1-2)Man
# Procedure, shortened: as §1
# [25] = molecular target: Gal(a1-3)Gal(b1-3)GlcNAc(b1-2)Man(a1-3)[Gal(a1-3)Gal(b1-3)GlcNAc(b1-2)Man(a1-6)]Man(b1-4)GlcNAc(b1-4)GlcNAc
# Procedure, shortened: as §1
# [26] = molecular target: Gal(a1-3)Gal(b1-3)GlcNAc(b1-3)GalNAc
# Procedure, shortened: as §1
# [27] = molecular target: Gal(a1-3)Gal(b1-3)GlcNAc(b1-6)GalNAc
# Procedure, shortened: as §1
# [28] = molecular target: Gal(a1-3)Gal(b1-3)[Fuc(a1-4)]GlcNAc(b1-2)Man(a1-3)[Gal(a1-3)Gal(b1-3)[Fuc(a1-4)]GlcNAc(b1-2)Man(a1-6)]Man(b1-4)GlcNAc(b1-4)GlcNAc
# Procedure, shortened: as §1
# [29] = molecular target: Gal(a1-3)Gal(b1-4)Glc
# Procedure, shortened: as §1
# [30] = molecular target: Gal(a1-3)Gal(b1-4)GlcNAc
# Procedure, shortened: as §1
binder,measurement,setting,value
B1,glycan array binding signal (z-score),[1],-0.516
same,glycan array binding signal (z-score),[2],0.542
same,glycan array binding signal (z-score),[3],-0.996
same,glycan array binding signal (z-score),[4],-0.276
same,glycan array binding signal (z-score),[5],0.062
same,glycan array binding signal (z-score),[6],0.653
same,glycan array binding signal (z-score),[7],-0.515
same,glycan array binding signal (z-score),[8],-0.029
same,glycan array binding signal (z-score),[9],-0.599
same,glycan array binding signal (z-score),[10],-0.081
same,glycan array binding signal (z-score),[11],0.565
same,glycan array binding signal (z-score),[12],-0.012
same,glycan array binding signal (z-score),[13],1.01
same,glycan array binding signal (z-score),[14],-0.203
same,glycan array binding signal (z-score),[15],0.069
same,glycan array binding signal (z-score),[16],0.353
same,glycan array binding signal (z-score),[17],0.403
same,glycan array binding signal (z-score),[18],0.709
same,glycan array binding signal (z-score),[19],-0.649
same,glycan array binding signal (z-score),[20],-0.373
same,glycan array binding signal (z-score),[21],-0.244
same,glycan array binding signal (z-score),[22],-0.056
same,glycan array binding signal (z-score),[23],0.073
same,glycan array binding signal (z-score),[24],0.418
same,glycan array binding signal (z-score),[25],1.68
same,glycan array binding signal (z-score),[26],-1.05
same,glycan array binding signal (z-score),[27],0.724
same,glycan array binding signal (z-score),[28],1.04
same,glycan array binding signal (z-score),[29],-0.203
same,glycan array binding signal (z-score),[30],-0.563

# Rewritten as tab-separated lines: part of the list above.
binder	measurement	setting	value
B1	glycan array binding signal (z-score)	[8]	-0.029
same	glycan array binding signal (z-score)	[9]	-0.599
